As usually defined, the Ki is the equilibrium dissociation constant of an inhibitor or competing ligand from its target. Read a high Ki as weaker binding.

This test has as its target T1, Solute carrier organic anion transporter family member 1A4 (Rattus norvegicus, UniProt O35913).
T1 sequence (O35913 whole entry): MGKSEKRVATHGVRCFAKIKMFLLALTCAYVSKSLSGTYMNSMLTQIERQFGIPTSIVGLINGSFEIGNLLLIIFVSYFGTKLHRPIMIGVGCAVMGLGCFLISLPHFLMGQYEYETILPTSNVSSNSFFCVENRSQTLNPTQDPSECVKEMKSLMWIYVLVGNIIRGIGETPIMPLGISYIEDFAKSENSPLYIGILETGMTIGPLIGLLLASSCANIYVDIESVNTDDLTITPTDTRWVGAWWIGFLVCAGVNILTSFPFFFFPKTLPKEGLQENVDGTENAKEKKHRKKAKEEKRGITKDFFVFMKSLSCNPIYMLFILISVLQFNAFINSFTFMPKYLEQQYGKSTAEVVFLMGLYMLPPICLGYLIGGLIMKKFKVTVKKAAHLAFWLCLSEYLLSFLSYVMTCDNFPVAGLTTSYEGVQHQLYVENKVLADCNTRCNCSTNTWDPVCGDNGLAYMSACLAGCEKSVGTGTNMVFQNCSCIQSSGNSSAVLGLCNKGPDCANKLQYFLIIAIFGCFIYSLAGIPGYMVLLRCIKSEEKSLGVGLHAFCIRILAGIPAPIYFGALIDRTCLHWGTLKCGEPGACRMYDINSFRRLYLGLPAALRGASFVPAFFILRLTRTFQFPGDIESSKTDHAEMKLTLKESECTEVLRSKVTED
Description: TP_TRANSPORTER: inhibition of Digoxin uptake in Xenopus laevis oocytes.

Take `CCCCc1oc2ccccc2c1C(=O)c1cc(I)c(OCCN(CC)CC)c(I)c1` [AMIODARONE]: affinity was put at a Ki of 1800 nM. This counts as single-digit micromolar.

Source of the values: ChEMBL document CHEMBL2074485, “Identification of thyroid hormone transporters in humans: different molecules are involved in a tissue-specific manner” (Endocrinology, 2001).
